This passage reports binding results from publication doi:10.1101/2021.03.25.21253623.

By UniProt entry, the sequences of proteins in these tests, tags left out. Where a name states a change or a piece, a line headed by the entry shows the natural chain unless it says otherwise.
UniProt Q5S006, whole entry: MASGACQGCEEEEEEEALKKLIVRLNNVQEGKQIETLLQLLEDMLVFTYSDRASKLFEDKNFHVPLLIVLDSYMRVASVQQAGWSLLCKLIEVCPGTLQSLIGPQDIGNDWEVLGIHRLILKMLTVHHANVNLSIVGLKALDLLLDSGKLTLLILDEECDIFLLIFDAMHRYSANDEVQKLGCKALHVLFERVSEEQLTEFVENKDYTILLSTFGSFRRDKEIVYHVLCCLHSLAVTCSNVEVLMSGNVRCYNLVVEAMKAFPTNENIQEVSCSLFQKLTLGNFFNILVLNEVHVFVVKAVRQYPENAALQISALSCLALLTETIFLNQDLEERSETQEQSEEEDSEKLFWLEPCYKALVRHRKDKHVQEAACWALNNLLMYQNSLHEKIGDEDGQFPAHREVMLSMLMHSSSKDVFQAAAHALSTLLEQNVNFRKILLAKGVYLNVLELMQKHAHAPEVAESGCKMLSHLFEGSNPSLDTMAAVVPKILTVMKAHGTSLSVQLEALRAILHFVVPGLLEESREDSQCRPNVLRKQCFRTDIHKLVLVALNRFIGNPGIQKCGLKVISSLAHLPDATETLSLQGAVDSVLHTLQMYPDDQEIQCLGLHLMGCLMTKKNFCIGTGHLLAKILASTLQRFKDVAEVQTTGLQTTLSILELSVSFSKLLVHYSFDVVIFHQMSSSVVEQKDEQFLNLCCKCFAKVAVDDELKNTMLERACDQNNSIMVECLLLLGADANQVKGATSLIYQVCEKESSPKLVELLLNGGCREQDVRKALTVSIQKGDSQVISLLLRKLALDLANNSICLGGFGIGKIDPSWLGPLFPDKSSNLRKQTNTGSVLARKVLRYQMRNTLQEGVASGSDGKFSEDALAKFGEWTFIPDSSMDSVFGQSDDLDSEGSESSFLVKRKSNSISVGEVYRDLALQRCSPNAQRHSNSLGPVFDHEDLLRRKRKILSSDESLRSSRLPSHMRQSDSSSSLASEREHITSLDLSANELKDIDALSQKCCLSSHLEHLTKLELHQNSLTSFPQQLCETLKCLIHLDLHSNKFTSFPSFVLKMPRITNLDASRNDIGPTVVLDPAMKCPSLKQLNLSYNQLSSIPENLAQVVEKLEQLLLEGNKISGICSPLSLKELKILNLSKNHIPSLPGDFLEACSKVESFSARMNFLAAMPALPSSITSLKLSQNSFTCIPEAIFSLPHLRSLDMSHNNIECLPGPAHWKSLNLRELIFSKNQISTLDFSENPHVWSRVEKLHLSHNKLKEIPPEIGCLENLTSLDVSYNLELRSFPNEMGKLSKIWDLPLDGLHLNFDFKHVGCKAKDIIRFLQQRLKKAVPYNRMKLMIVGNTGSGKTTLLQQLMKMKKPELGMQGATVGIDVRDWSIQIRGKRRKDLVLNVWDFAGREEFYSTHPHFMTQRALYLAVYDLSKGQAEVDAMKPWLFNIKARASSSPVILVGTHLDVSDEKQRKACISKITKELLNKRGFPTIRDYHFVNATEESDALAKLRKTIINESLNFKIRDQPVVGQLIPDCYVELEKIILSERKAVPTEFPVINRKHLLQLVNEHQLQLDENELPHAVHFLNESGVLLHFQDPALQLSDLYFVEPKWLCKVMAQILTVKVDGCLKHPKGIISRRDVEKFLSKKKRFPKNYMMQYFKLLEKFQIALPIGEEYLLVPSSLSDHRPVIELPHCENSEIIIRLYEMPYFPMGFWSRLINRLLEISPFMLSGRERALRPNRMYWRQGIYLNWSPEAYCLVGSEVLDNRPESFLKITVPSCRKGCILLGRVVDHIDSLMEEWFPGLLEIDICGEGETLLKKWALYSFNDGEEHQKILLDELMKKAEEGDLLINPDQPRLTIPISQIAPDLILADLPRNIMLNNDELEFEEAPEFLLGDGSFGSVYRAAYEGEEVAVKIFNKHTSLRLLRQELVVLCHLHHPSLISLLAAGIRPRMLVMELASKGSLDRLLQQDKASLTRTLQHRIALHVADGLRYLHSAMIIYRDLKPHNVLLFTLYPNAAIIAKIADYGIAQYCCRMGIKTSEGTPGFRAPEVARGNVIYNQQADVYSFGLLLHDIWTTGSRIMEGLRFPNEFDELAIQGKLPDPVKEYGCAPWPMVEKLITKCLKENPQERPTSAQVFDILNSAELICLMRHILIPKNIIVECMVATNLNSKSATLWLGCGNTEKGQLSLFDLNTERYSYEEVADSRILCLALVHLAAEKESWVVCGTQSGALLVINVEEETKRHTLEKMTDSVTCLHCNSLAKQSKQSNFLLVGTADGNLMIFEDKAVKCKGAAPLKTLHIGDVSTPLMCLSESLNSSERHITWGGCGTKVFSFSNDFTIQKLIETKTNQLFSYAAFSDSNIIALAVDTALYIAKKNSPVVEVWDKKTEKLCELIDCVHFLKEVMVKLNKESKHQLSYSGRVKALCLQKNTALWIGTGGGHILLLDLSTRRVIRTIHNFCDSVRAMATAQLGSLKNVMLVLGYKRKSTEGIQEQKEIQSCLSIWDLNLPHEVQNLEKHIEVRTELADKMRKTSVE
UniProt Q9HC29, whole entry: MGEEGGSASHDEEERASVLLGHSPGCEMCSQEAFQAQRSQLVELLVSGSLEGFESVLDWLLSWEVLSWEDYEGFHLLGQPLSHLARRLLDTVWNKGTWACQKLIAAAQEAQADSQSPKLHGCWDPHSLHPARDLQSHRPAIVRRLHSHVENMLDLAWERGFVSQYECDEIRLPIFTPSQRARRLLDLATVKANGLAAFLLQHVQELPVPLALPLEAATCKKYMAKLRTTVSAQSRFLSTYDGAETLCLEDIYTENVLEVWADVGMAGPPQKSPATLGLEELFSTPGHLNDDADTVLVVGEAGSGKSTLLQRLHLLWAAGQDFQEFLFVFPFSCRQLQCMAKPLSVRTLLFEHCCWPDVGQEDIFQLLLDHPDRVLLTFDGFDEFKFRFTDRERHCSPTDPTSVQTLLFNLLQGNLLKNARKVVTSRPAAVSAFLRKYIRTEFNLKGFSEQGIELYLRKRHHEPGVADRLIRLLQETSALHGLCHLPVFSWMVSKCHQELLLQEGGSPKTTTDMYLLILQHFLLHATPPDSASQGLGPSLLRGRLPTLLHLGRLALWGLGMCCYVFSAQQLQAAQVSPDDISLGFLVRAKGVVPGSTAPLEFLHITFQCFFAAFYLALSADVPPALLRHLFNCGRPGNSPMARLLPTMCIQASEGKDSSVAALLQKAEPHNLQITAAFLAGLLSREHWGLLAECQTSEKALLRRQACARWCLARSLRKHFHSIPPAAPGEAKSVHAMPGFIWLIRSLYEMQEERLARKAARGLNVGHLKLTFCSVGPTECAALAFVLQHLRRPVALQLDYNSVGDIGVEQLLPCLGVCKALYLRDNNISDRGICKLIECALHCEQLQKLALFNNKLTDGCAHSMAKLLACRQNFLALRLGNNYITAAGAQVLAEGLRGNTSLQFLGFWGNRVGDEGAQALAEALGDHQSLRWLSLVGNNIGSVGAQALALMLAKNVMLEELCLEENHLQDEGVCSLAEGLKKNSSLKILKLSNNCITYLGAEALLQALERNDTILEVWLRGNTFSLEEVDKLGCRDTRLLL

Results are given in words; binding and its absence hold for the method and conditions named. Binding seen in cells or lysates may run through a third protein. Some results given as binding are weak or reduced against the parent protein; the word gives no strength.

Experiment [1] deals with LRRK2 wild-type (mouse (endogenous in RAW264.7)) (UniProt Q5S006). In words: co-IP.
Experiment [2] concerns the target LRRK2 N551K/R1398H double mutant (mouse (endogenous in RAW264.7)) (UniProt Q5S006). Briefly: co-IP.

“FLAG-tagged NOD2 wild-type (from UniProt Q9HC29 1-1040)”: the binding result in experiment [1] and in experiment [2] was “binds” each time.
